Patent publication US12521393B2, “Cytotoxicity targeting chimeras for CCR2-expressing cells” (GLAXOSMITHKLINE INTELLECTUAL PROPERTY DEVELOPMENT LIMITED, priority 2021, dated 2026)

Protein sequences, listed by entry. Tags and fused reporters are not part of them. Lines headed by an entry give the natural chain unless they say otherwise; changes in a name come on top.
UniProt P41597, whole entry: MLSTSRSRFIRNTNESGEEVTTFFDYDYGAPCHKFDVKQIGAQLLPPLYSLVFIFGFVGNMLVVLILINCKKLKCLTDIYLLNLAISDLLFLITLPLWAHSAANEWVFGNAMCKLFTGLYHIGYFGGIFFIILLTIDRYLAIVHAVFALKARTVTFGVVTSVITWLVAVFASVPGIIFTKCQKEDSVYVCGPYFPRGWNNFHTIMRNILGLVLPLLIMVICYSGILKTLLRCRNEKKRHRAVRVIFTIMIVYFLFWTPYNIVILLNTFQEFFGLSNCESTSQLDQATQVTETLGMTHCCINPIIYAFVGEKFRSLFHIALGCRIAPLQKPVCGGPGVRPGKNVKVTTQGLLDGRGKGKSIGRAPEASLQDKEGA

What was measured:
[1] = test system: endogenous target monocytes in human PBMC; experiment: PBMC ex vivo monocyte depletion flow cytometry assay (Example 200); settings: with anti-cotinine antibody (SEQ ID NO: 11/12), 18-24 hours, EC50 in molar
Procedure: A human PBMC (peripheral blood mononuclear cells) monocyte depletion flow cytometry assay was developed to screen compounds in a 384-well plate format. This assay incorporated endogenous natural killer cells to deplete endogenous target monocytes.
To screen compounds in the human PBMC monocyte depletion flow cytometry assay, 11-point dose-response curves were made from 1 mM stocks in neat DMSO by serially diluting an ARM compound of Formula (I) four-fold into a 384-well plate row-wise. These serially diluted compounds were then stamped into a flat bottom polypropylene 384-well plate (Greiner Bio-One) at 100 nL/well. […]
After 18-24 hours incubation, 2 μL of 6.25 μg human FC block (BD Pharmingen) that was diluted in assay medium was added to the wells of the plate. […] Samples from the plate were run on BD FACS Canto II flow cytometer and data was analyzed using FlowJo software.
ARMs compounds of Formula (I) of the invention were tested for the ability to deplete monocytes in the above assay in one or more experimental runs and the results are shown in Table 3 below. […] The pEC50 value is the negative log of the EC50 value, wherein the EC50 value is the half maximal effective concentration measured in molar (M). For compounds tested in more than one experimental run, the pEC50 value is reported as an average or as the individual values measured

[2] = target: CHOK1 cells engineered to overexpress human CCR2 (Homo sapiens, UniProt P41597); experiment: Antibody dependent cellular cytotoxicity (ADCC) reporter assay (Example 199); settings: with anti-cotinine antibody (SEQ ID NO: 11/12); Jurkat FcγRIIIa NFAT-luciferase reporter cells; 12-18 hours; EC50 in molar; average or individual runs
Procedure: An antibody dependent cellular cytoxocity reporter assay was conducted using the following four assay components: (i) ARM compound of Formula (I) targeting CCR2 (concentrations ranging from […] to 10 μM) (ii) anti-cotinine antibody having a heavy chain sequence of SEQ ID NO: 11 and a light chain sequence of SEQ ID NO: 12 (rabbit variable region with human IgG1 Fc domain containing a DE mutation (S239D/1332E)) (concentrations ranging from 0.01 μg/mL to 200 μg/mL); (iii) target cells: CHOK1 cells engineered to overexpress either human CCR2 (typically 1000-20,000 cells per well) and (iv) reporter cells: Jurkat cells engineered to express FcγRIIIa with the reporter gene luciferase under the control of the NFAT promoter (typically 3000-75,000 cells per well). Reagents were combined in a final volume of 20 μL in a 384-well tissue culture treated plate. […] Luminescence signal was measured on a microplate reader and signal: background was calculated by dividing the signal of a test well by the signal obtained when no heterobivalent compound of Formula (I) was added. […]
ARMs compounds of Formula (I) of the invention were tested for ADCC activity in the above assay in or more experimental runs and the results are shown in Table 3 below. […] The pEC50 value is the negative log of the EC50 value, wherein the EC50 value is the half maximal effective concentration measured in molar (M). […]

## CC(C)N(C)[C@@H]1CC[C@H](N2CC[C@H](Nc3ncnc4ccc(C(F)(F)F)cc34)C2=O)[C@H](NC(=O)C2CCN(C3CCN(C(=O)CCCCCCCNC(=O)[C@@H]4CC(=O)N(C)[C@H]4c4cccnc4)CC3)CC2)C1
[1]
  Ex Vivo Depletion Assay pEC50: 9.3
[2]
  ADCC Reporter Assay pEC50: 8.6

The structures given here were assigned with low confidence; some may be wrong.
